# Where “and” joins values, the source holds several entries; their conditions need not be identical. Equal entries are not always repeated. This is one part of the list. For some of these results: The source does not settle which construct or isoform was used.
# Key:
# Assay in all cases: protein microarray (ProtoArray v5.0), streptavidin-Alexa Fluor 647
# Details in all cases: 3'-biotin; 20 mM Tris (pH 7.5), 5 mM MgCl2, 100 mM KCl, 0.1% Tween-20, A/T-rich and random oligonucleotide blockers; temperature not stated; high values mean tight binding
# SLC25A46 (human) = tested on: SLC25A46 (human)
# SLC26A2 (human) = tested on: SLC26A2 (human)
# SLC2A5 (human) = tested on: SLC2A5 (human)
# SLC30A5 (human) = tested on: SLC30A5 (human)
# SLC31A2 = biological target: T1, SLC31A2 (UniProt O15432)
# T1 sequence: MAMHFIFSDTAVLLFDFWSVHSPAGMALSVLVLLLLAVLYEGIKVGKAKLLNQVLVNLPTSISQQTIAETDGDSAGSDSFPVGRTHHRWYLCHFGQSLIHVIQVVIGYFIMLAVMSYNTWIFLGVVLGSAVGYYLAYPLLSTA
# SLC35B3 (human) = tested on: SLC35B3 (human)
# SLC38A3 (human) = tested on: SLC38A3 (human)
# SLC39A1 (human) = tested on: SLC39A1 (human)
# SLC40A1 (human) = tested on: SLC40A1 (human)
# SLC6A6 (human) = tested on: SLC6A6 (human)
sequence,measurement,setting,value
GGGAGGCTGAGGCAGG [G4-1 biotinylated (PQS2)],binding signal,SLC25A46 (human),-0.326 z-score
same,binding signal,SLC26A2 (human),-0.348 z-score
same,binding signal,SLC2A5 (human),-0.325 z-score and -0.349 z-score
same,binding signal,SLC30A5 (human),-0.288 z-score
same,binding signal,SLC31A2,-0.313 z-score
same,binding signal,SLC35B3 (human),-0.276 z-score
same,binding signal,SLC38A3 (human),-0.312 z-score
same,binding signal,SLC39A1 (human),-0.326 z-score
same,binding signal,SLC40A1 (human),-0.314 z-score
same,binding signal,SLC6A6 (human),-0.251 z-score

# — PMC5996148
